At least one compound was matched to its structure with a doubt left.
System: streptozotocin-induced diabetic neuropathy
Test: Reversal of allodynia (von Frey hair) in streptozotocin-induced diabetic neuropathy
Format: in vivo, male Wistar rats
Details: each drug alone at non sedating doses, intraperitoneal
Procedure: Experiments were performed on male Wistar rats (wt 150-220g). Two series of experiments were performed in an observer blinded fashion with saline (negative) controls and GABAPentin (positive) controls. The investigations were in two stages: • 1. a range of doses of aprepitant (an example of a NK antagonist) given alone and in combination with flupirtine (an example of an inhibitor of neuronal excitation) were tested for sedating effects using the open field activity monitor.
Rats were injected intraperitoneally with streptozotocin (150 mg per kg total dose—Sapphire Bioscience) dissolved in sodium chloride 0.9%. The induction of diabetes was confirmed one week after injection of streptozotocin and weekly thereafter by measurement of tail vein blood glucose levels with Ames Glucofilm test strips and Ames Glucometer blood glucose meter. Only animals with blood glucose levels greater than or equal to 15 mM and maintained continuously for 5 weeks were deemed to be diabetic. […] At the end of five weeks these rats were assessed with the methods of measuring hyperalgesia (paw flick—Hargreaves method) and allodynia (withdrawal from von Frey Hair stimulation at normally non noxious intensity) to elucidate the antinociceptive effects of flupirtine and aprepitant given intraperitoneally alone and in combination (with saline and GABApentin for comparison).

SMILES: CCOC(=O)Nc1ccc(NCc2ccc(F)cc2)nc1N [flupirtine]
- antinociception with respect to allodynia: Neither drug at non sedating doses causes significant antinociception
